Measured values as given in publication PMC12159841.
Results are given in words; binding and its absence hold for the method and conditions named. Binding seen in cells or lysates may run through a third protein. These calls come from enrichment with a bait or labelling near it, and not all partners need be listed.

Molecular target: T1, Tissue kallikrein-related peptidase 8 (KLK8) (UniProt Q61955)
T1 sequence: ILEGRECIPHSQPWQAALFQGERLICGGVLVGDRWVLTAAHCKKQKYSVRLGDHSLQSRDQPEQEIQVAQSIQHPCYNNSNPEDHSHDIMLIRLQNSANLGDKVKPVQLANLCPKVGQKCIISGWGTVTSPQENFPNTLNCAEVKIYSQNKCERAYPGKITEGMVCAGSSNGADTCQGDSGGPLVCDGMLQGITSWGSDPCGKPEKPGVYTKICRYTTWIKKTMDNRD
Assay: affinity purification with mass spectrometry; proteins from Ad-KLK8-treated BV2 cells immunoprecipitated with anti-KLK8 antibody, SDS-PAGE, in-gel trypsin digestion, UPLC-MS/MS; searched against the Rattus database (UniProtKB/Swiss-Prot)

B1: CD44 (receptor, UniProt P15379 23-778)
chain: QIDLNVTCRYAGVFHVEKNGRYSISRTEAADLCQAFNSTLPTMDQMKLALSKGFETCRYGFIEGNVVIPRIHPNAICAANHTGVYILVTSNTSHYDTYCFNASAPPEEDCTSVTDLPNSFDGPVTITIVNRDGTRYSKKGEYRTHQEDIDASNIIDDDVSSGSTIEKSTPEGYILHTYLPTEQPTGDQDDSFFIRSTLATIASTVHSKSHAAAQKQNNWIWSWFGNSQSTTQTQEPTTSATTALMTTPETPPKRQEAQNWFSWLFQPSESKSHLHTTTKMPGTESNTNPTGWEPNEENEDETDTYPSFSGSGIDDDEDFISSTIATTPRVSARTEDNQDWTQWKPNHSNPEVLLQTTTRMADIDRISTSAHGENWTPEPQPPFNNHEYQDEEETPHATSTTPNSTAEAAATQQETWFQNGWQGKNPPTPSEDSHVTEGTTASAHNNHPSQRITTQSQEDVSWTDFFDPISHPMGQGHQTESKDTDSSHSTTLQPTAAPNTHLVEDLNRTGPLSVTTPQSHSQNFSTLHGEPEEDENYPTTSILPSSTKSSAKDARRGGSLPTDTTTSVEGYTFQYPDTMENGTLFPVTPAKTEVFGETEVTLATDSNVNVDGSLPGDRDSSKDSRGSSRTVTHGSELAGHSSANQDSGVTTTSGPMRRPQIPEWLIILASLLALALILAVCIAVNSRRRCGQKKKLVINGGNGTVEDRKPSELNGEASKSQEMVHLVNKEPSETPDQCMTADETRNLQSVDMKIGV
binding: binds
